Results reported in the supplement of paper PMC10849652.
The other results are listed elsewhere or left out.

Chains of the proteins cited; added tags and fusions are not shown. Lines headed by an entry give the natural chain unless they say otherwise; changes in a name come on top.
UniProt P09661: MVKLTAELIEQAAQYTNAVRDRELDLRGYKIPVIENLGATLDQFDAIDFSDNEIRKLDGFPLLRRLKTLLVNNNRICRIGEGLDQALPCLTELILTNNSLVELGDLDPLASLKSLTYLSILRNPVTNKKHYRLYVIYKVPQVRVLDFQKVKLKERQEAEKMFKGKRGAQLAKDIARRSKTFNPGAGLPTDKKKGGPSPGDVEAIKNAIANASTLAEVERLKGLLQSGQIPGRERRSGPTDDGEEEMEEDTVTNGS
UniProt O95721: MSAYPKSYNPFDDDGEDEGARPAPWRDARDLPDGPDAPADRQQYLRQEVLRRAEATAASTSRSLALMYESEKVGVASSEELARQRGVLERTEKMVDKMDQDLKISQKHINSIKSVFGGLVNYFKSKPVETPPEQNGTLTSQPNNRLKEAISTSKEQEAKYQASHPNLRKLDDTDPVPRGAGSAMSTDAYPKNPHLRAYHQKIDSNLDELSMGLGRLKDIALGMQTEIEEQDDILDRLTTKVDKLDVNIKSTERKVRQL
UniProt O60641: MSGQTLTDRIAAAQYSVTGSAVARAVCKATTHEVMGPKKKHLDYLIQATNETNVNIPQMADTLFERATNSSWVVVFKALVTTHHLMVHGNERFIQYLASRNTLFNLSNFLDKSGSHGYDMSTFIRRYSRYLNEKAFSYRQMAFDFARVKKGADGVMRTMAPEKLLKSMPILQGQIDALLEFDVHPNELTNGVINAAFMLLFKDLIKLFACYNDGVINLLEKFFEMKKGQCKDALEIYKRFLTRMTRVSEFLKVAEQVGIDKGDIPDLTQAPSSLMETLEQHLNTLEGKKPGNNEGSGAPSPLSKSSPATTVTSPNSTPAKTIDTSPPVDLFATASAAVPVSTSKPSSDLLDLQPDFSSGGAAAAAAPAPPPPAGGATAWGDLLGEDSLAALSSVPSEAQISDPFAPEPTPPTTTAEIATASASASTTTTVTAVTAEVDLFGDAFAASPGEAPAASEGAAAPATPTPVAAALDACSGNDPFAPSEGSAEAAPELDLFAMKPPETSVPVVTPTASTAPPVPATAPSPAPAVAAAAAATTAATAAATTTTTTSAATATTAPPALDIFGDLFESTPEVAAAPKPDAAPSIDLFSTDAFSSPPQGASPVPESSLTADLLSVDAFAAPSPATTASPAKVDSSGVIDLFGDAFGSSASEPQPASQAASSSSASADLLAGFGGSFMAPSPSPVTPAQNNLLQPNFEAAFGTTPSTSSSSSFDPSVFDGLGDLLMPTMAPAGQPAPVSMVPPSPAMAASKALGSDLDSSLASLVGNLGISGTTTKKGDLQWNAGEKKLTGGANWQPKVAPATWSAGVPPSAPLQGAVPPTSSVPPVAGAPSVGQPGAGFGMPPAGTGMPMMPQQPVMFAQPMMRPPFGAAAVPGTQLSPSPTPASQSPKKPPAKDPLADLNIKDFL
UniProt Q9Y5X2: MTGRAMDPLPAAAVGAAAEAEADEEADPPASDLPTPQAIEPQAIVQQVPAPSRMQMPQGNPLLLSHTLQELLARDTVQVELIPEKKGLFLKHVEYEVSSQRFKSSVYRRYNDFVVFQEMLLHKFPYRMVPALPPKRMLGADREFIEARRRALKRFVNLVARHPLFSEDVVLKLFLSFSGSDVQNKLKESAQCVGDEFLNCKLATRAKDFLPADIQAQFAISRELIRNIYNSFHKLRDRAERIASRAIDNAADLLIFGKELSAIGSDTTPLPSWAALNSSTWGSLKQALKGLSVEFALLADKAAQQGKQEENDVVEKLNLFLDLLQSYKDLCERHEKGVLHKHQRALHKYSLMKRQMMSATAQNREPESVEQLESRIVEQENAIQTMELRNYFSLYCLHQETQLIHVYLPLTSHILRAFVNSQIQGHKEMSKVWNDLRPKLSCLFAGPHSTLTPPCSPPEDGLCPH
UniProt P62306, whole entry, looked up: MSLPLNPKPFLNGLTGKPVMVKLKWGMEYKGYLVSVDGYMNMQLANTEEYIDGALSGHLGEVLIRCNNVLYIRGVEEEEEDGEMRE
UniProt P62308, whole entry, looked up: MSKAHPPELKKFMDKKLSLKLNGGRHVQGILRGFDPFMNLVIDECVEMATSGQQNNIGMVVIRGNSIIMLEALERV
UniProt Q96EX1: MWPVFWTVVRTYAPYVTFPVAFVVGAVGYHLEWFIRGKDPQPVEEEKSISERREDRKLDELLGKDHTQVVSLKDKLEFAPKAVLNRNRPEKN
UniProt Q13596, whole entry, looked up: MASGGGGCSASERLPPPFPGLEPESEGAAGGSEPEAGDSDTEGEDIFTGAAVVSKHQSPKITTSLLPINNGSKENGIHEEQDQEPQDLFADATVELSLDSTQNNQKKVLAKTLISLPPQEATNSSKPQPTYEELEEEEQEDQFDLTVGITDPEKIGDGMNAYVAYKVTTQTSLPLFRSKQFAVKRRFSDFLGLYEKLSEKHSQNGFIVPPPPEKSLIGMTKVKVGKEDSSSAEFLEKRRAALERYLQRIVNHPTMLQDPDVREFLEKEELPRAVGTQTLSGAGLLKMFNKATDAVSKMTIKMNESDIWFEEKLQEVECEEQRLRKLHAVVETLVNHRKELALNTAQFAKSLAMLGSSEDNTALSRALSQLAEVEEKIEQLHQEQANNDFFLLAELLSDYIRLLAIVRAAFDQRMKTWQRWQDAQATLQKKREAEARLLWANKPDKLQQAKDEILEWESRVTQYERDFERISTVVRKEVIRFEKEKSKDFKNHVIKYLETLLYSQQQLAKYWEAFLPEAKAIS
UniProt Q9H0W8: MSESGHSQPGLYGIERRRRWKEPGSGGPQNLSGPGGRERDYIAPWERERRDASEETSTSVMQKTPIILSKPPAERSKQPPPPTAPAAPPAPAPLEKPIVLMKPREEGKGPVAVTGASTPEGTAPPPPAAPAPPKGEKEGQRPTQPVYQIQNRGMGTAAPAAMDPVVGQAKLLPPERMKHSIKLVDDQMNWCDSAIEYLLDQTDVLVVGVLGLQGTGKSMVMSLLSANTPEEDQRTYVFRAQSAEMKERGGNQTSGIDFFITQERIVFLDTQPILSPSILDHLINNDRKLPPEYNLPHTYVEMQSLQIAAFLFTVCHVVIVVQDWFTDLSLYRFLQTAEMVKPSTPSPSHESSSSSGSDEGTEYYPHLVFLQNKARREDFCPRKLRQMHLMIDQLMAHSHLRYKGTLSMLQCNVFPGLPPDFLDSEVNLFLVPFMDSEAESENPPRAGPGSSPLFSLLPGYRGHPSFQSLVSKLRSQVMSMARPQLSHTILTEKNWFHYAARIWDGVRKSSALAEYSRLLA
UniProt O95219: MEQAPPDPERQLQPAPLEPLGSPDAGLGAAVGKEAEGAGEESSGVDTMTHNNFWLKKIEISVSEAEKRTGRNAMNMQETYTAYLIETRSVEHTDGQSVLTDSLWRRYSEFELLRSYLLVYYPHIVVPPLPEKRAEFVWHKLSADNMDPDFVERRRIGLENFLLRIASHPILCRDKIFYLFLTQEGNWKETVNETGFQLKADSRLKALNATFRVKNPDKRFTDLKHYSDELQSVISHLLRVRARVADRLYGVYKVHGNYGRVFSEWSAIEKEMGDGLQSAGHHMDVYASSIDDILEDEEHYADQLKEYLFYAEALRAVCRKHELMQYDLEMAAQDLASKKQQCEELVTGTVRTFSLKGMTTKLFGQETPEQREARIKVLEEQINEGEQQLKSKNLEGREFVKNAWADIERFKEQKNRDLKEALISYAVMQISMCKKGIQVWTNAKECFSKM
UniProt P09234, whole entry, looked up: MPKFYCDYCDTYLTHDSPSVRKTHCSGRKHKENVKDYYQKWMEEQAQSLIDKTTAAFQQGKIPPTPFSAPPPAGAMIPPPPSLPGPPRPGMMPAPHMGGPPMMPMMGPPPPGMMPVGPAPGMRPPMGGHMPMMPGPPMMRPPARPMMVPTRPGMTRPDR
UniProt O94964: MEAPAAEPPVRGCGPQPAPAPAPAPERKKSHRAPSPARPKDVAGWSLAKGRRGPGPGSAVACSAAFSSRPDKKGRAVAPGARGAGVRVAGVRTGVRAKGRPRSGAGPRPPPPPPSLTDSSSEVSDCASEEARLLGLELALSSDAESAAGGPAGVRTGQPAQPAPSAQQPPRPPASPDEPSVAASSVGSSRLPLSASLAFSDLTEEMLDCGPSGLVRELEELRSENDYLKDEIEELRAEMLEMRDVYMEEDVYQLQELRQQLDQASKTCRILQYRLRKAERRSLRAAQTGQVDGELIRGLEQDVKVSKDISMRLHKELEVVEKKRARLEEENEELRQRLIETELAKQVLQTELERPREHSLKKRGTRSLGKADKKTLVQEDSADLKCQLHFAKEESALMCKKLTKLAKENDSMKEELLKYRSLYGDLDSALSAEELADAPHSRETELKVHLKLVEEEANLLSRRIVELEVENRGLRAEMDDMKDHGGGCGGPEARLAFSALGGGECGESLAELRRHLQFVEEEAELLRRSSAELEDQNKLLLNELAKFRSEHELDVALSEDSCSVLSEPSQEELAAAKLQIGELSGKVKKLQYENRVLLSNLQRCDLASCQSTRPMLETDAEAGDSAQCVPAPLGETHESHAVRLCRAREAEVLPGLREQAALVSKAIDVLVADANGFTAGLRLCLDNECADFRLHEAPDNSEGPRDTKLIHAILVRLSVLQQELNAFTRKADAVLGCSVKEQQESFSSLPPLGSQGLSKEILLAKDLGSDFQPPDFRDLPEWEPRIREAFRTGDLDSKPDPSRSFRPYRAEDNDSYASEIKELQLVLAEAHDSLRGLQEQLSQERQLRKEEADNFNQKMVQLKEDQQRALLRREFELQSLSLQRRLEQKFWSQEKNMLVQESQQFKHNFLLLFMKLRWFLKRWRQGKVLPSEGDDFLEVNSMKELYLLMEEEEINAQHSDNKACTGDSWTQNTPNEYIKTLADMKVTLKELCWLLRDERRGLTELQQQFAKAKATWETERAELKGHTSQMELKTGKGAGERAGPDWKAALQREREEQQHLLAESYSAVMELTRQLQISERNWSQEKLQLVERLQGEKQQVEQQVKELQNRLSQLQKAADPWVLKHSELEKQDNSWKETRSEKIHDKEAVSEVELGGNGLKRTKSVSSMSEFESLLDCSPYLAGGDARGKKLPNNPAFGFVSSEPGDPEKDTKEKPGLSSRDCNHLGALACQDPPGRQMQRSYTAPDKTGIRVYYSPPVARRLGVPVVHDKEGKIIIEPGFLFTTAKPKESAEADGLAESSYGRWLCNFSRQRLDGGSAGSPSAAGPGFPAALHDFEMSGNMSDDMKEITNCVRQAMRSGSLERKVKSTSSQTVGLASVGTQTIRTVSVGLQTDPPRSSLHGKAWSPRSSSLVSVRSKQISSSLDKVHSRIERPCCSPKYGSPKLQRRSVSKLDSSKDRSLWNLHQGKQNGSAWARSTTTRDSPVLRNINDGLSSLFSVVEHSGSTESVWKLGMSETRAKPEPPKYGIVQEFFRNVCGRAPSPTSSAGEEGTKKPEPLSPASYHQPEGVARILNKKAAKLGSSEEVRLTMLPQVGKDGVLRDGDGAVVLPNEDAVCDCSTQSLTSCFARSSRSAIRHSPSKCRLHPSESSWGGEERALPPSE
UniProt Q92540: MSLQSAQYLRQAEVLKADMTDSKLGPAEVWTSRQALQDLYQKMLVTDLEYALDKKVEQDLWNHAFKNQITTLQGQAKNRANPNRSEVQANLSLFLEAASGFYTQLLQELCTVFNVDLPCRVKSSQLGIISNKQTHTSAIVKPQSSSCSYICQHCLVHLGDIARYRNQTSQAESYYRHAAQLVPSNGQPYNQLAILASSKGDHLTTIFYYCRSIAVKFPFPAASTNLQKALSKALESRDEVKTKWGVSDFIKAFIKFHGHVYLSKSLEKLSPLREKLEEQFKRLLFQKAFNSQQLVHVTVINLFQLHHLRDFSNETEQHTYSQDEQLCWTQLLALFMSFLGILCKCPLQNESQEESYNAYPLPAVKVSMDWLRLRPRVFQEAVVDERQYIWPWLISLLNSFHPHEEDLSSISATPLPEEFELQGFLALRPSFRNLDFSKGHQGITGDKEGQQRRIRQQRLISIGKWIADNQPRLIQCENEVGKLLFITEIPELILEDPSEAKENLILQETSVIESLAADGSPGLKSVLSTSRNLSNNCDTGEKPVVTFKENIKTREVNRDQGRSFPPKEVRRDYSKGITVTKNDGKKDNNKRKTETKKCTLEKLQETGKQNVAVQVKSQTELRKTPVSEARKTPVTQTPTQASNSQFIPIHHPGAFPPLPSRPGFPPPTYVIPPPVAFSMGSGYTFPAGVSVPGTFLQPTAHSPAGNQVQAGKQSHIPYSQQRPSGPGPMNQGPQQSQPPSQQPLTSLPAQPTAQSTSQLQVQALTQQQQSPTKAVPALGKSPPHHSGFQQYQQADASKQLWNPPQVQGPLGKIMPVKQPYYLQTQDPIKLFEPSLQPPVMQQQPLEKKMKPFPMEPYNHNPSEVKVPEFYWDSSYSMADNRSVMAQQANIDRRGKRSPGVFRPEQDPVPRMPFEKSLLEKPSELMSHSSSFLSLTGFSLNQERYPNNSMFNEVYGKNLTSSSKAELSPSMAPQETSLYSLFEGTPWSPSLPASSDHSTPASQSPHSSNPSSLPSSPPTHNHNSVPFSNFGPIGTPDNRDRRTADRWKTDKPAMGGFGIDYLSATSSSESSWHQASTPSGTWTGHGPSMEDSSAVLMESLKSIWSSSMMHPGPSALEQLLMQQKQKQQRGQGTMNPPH

Columns and labels:
Assay in all cases: log2 fold change, soluble protein after heating vs DMSO (PISA); higher = thermal stabilisation; K562 lysate, 10 uM; active = over 0.2 and 3.5 SD of the protein, either way, in both replicates (recomputed)
[1] = compound: C1=CC=C(C=C1)[C@H](COC2=CC3=C(C=C2)NC(=O)N3)NC(=O)C4=CC=CN(C4=O)CC5=CC(=C(C=C5)F)F
In short: (§1)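 To prepare the extract, K562 pellets were dounce-homogenised in PBS pH 7.4 with 1 mM MgCl2, giving crude material at 1 mg/mL protein. This was treated with 10 μM compound for 30 min, then heated in aliquots for 3 min over 48°C-58°C before pooling and addition of NP-40 to 0.5% at 4°C. Centrifugation at 21,000xg for 90 min left soluble protein in the supernatant, which TMTpro 16plex LC-MS/MS quantified with equalised channel sums. Results are log-two fold changes in thermal stability compared with solvent controls, from duplicates.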

[2] = compound: CC1=C(SC2=C1C(=N[C@H](C3=NN=C(N32)C)CC(=O)N)C4=CC=C(C=C4)Cl)C
In short: as §1

[3] = compound: CC1=C2C(=CC=C1)N=C(N(C2=O)C3=CC=CC=C3C)CN4C=NC5=C(N=CN=C54)N
In short: as §1

[4] = compound: Cc1sc2c(c1C)C(c1ccc(Cl)cc1)=N[C@@H](CC(=O)OC(C)(C)C)c1nnc(C)n1-2
In short: as §1

[5] = compound: c1ccc([C@@H]2C[C@H]2NC2CCNCC2)cc1
In short: as §1

Measured: log2 fold change

SNRPA1 (UniProt P09661)
inactive: [1] 0.045 | [2] -0.005 | [3] 0.01 | [4] -0.013 | [5] -0.002

SNAP29 (UniProt O95721)
inactive: [1] 0.101 | [2] 0.038 | [3] 0 | [4] 0.018 | [5] -0.038

SMCR8 (UniProt Q8TEV9)
inactive: [1] 0.092 | [2] -0.062 | [3] -0.016 | [4] 0.026 | [5] -0.093

SNAP91 (UniProt O60641)
inactive: [1] 0.046 | [2] -0.09 | [3] -0.005 | [4] -0.052 | [5] 0.015

SOD2 (UniProt P04179)
inactive: [1] 0.045 | [2] -0.021 | [3] -0.006 | [4] -0.003 | [5] -0.098

SNX6, A0A0A0MRI2
inactive: [1] 0.014 | [2] 0.006 | [3] 0.016 | [4] 0.017 | [5] 0.115

SNX8 (UniProt Q9Y5X2)
inactive: [1] 0.003 | [2] 0.041 | [3] 0.017 | [4] -0.014 | [5] -0.034

Pulled one by one from the entries so far, 4 records:
SOD2 (UniProt P04179)
inactive: [1] 0.045 | [2] -0.021 | [3] -0.006 | [4] -0.003 | [5] -0.098

SNAP91 (UniProt O60641)
inactive: [1] 0.046 | [2] -0.09 | [3] -0.005 | [4] -0.052 | [5] 0.015

SMCR8 (UniProt Q8TEV9)
inactive: [1] 0.092 | [2] -0.062 | [3] -0.016 | [4] 0.026 | [5] -0.093

SNX6, A0A0A0MRI2
inactive: [1] 0.014 | [2] 0.006 | [3] 0.016 | [4] 0.017 | [5] 0.115

Following part.

SORD (UniProt Q00796)
inactive: [1] 0.017 | [2] -0.004 | [3] -0.015 | [4] -0.007 | [5] 0.013

SNRNP27 (UniProt Q8WVK2)
inactive: [1] 0.015 | [2] -0.037 | [3] -0.012 | [4] -0.035 | [5] 0.053

SND1 (UniProt Q7KZF4)
inactive: [1] -0.008 | [2] 0.021 | [3] 0.022 | [4] 0.037 | [5] 0.041

SNRPF (UniProt P62306)
inactive: [1] 0.04 | [2] -0.084 | [3] -0.12 | [4] -0.103 | [5] -0.206

SNRPG (UniProt P62308)
inactive: [1] 0.005 | [2] -0.002 | [3] 0.007 | [4] -0.057 | [5] -0.113

SMG1 (UniProt Q96Q15)
inactive: [1] -0.05 | [2] -0.012 | [3] 0.018 | [4] 0.034 | [5] 0.046

SMG8 isoform 2 (UniProt Q8ND04)
inactive: [1] 0.014 | [2] 0.042 | [3] 0.024 | [4] 0.017 | [5] 0.107

SMC1A (UniProt Q14683)
inactive: [1] 0 | [2] 0.005 | [3] 0.011 | [4] 0.009 | [5] -0.001

SNRK (UniProt Q9NRH2)
inactive: [1] -0.015 | [2] -0.033 | [3] -0.394 | [4] -0.006 | [5] -0.093

SNX3 (UniProt O60493)
inactive: [1] -0.033 | [2] 0.031 | [3] -0.034 | [4] 0.036 | [5] 0.009

SNX16 (UniProt P57768)
inactive: [1] 0.128 | [2] -0.016 | [3] -0.038 | [4] -0.073 | [5] -0.128

SMIM12 (UniProt Q96EX1)
inactive: [1] -0.026 | [2] -0.006 | [3] 0.004 | [4] 0.105 | [5] 0.153

SNX1 (UniProt Q13596)
inactive: [1] -0.011 | [2] 0.002 | [3] -0.012 | [4] 0.002 | [5] 0.024

SMG9 (UniProt Q9H0W8)
inactive: [1] 0.005 | [2] 0.03 | [3] 0.026 | [4] -0.02 | [5] -0.001

SMU1 (UniProt Q2TAY7)
inactive: [1] 0.027 | [2] -0.058 | [3] 0.005 | [4] 0.037 | [5] -0.009

SOS1 (UniProt Q07889)
inactive: [1] -0.041 | [2] -0.019 | [3] 0.047 | [4] -0.054 | [5] 0.134

SMUG1 (UniProt Q53HV7)
inactive: [1] 0.05 | [2] 0.079 | [3] 0.027 | [4] 0.043 | [5] -0.165

SP2 (UniProt Q02086)
inactive: [1] -0.176 | [2] 0.019 | [4] -0.135

SOX5 (UniProt P35711)
inactive: [1] -0.092 | [2] -0.052 | [3] 0.076 | [4] -0.005 | [5] 0

SOX7 isoform 2 (UniProt Q9BT81)
inactive: [1] 0.039 | [2] 0.022 | [3] 0.118 | [5] 0.131

SOX6 (UniProt P35712)
inactive: [1] 0.031 | [2] -0.255 | [3] -0.253 | [4] 0.144 | [5] 0.004

SMARCA5 (UniProt O60264)
inactive: [1] 0.006 | [2] 0.013 | [3] -0.005 | [4] -0.022 | [5] 0.012

SMARCC1 (UniProt Q92922)
inactive: [1] -0.018 | [2] -0.029 | [3] -0.009 | [4] -0.004 | [5] -0.026

SNX4 (UniProt O95219)
inactive: [1] 0.029 | [2] -0.051 | [3] 0 | [4] -0.026 | [5] 0.01

SNX9 (UniProt Q9Y5X1)
inactive: [1] 0.002 | [2] 0.004 | [3] 0.038 | [4] 0.027 | [5] 0.038

SOD3 (UniProt P08294)
inactive: [1] 0.128 | [2] -0.118 | [3] 0.025 | [5] 0.009

SNRNP40 (UniProt Q96DI7)
inactive: [1] 0.023 | [2] -0.03 | [3] 0.012 | [4] 0 | [5] -0.002

SORBS1 isoform 8 (UniProt Q9BX66)
inactive: [1] 0.023 | [2] 0 | [3] 0.047 | [4] -0.012 | [5] 0.001

SNX17 (UniProt Q15036)
inactive: [1] 0.004 | [2] 0.016 | [3] 0.054 | [4] 0.02 | [5] 0.051

SNF8 (UniProt Q96H20)
inactive: [1] 0.019 | [2] 0.035 | [3] -0.021 | [4] -0.009 | [5] 0.016

SPAG9 (UniProt O60271)
inactive: [1] 0.029 | [2] -0.017 | [3] 0.011 | [4] -0.043 | [5] -0.042

SMARCB1 (UniProt Q12824)
inactive: [1] 0.045 | [2] 0.071 | [3] 0.019 | [4] 0.009 | [5] 0.054

SMU1 isoform 2 (UniProt Q2TAY7)
inactive: [1] -0.216 | [2] 0.095 | [3] 0.216 | [5] -0.209

SMARCAD1 isoform 2 (UniProt Q9H4L7)
inactive: [1] -0.006 | [2] -0.036 | [3] 0.014 | [4] 0.014 | [5] 0.035

SNRPC (UniProt P09234)
inactive: [1] 0.096 | [2] -0.087 | [3] -0.021 | [4] -0.001 | [5] -0.015

SNX12 isoform 1 (UniProt Q9UMY4)
inactive: [1] -0.011 | [2] -0.004 | [3] 0.013 | [4] -0.001 | [5] 0.023

SMPD4 isoform 4 (UniProt Q9NXE4)
inactive: [1] -0.116 | [2] 0.112 | [3] 0.087 | [5] -0.046

SNAP23 (UniProt O00161)
inactive: [1] 0.059 | [2] -0.038 | [3] -0.005 | [4] 0.007 | [5] 0.066

SP100 isoform 4 (UniProt P23497)
inactive: [1] 0.043 | [2] -0.007 | [3] -0.009 | [4] 0.007 | [5] -0.014

SOGA1 isoform 2 (UniProt O94964)
inactive: [1] -0.033 | [2] 0.052 | [3] 0.054 | [4] 0.063 | [5] 0.13

SMARCD1 (UniProt Q96GM5)
inactive: [1] 0.018 | [2] 0.021 | [3] 0.037 | [4] -0.006 | [5] 0.006

SNUPN (UniProt O95149)
inactive: [1] -0.013 | [2] -0.018 | [3] 0.047 | [5] -0.02

SNAPC4 (UniProt Q5SXM2)
inactive: [1] -0.12 | [2] 0.05 | [3] 0.083 | [5] 0.021

SMYD5 (UniProt Q6GMV2)
inactive: [1] 0.028 | [2] -0.001 | [3] 0.048 | [4] -0.029 | [5] -0.104

SMARCA2 (UniProt P51531)
inactive: [1] 0.079 | [2] 0 | [3] -0.041 | [4] 0.058 | [5] 0.081

SMG7 (UniProt Q92540)
inactive: [1] 0.008 | [2] 0.019 | [3] 0.147 | [4] -0.014 | [5] 0.029

SMC3 (UniProt Q9UQE7)
inactive: [1] -0.002 | [2] 0.011 | [3] -0.011 | [4] 0.037 | [5] 0.022
